Data as given in PMC4562119.
These are yes or no findings as the source states them, for the method shown. Binding seen in cells or lysates may run through a third protein. Some results given as binding are weak or reduced against the parent protein; the word gives no strength.

Tests used:
[1] = target: T1, BORIS (Brother Of the Regulator of Imprinting Sites; CTCFL) (human (endogenous in K562, OVCAR8 and human testis)) (UniProt Q8NI51); assay: proximity ligation; in situ proximity ligation assay (ISPLA, Duolink) on fixed cells or tissue with mouse monoclonal anti-BORIS and rabbit anti-CTCF (D31H2); OVCAR8 cells, human testis tissue, MCF7+BORIS and MCF7+EV cells
T1 sequence: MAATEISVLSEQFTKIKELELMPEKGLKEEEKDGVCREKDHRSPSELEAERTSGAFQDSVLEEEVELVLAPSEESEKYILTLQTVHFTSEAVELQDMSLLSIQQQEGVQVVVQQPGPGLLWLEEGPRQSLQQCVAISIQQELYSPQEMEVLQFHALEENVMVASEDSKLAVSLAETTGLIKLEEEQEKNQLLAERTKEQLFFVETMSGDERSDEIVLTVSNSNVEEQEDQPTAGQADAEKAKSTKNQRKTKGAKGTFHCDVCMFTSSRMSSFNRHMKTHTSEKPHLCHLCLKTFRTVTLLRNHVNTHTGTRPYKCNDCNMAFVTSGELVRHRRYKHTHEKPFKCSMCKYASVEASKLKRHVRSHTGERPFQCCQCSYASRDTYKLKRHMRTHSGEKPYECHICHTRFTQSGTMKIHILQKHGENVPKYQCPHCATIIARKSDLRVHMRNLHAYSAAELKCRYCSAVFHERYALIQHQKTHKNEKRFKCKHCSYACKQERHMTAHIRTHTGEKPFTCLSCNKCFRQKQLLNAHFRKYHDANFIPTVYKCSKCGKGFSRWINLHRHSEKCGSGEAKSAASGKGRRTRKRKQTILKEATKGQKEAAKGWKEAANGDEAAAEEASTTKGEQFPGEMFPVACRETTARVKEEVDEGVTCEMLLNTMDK

[2] = target: T2, BORIS, exogenous, stably expressed in MCF7 cells (MCF7+BORIS) (UniProt Q8NI51); assay: as above
T2 sequence: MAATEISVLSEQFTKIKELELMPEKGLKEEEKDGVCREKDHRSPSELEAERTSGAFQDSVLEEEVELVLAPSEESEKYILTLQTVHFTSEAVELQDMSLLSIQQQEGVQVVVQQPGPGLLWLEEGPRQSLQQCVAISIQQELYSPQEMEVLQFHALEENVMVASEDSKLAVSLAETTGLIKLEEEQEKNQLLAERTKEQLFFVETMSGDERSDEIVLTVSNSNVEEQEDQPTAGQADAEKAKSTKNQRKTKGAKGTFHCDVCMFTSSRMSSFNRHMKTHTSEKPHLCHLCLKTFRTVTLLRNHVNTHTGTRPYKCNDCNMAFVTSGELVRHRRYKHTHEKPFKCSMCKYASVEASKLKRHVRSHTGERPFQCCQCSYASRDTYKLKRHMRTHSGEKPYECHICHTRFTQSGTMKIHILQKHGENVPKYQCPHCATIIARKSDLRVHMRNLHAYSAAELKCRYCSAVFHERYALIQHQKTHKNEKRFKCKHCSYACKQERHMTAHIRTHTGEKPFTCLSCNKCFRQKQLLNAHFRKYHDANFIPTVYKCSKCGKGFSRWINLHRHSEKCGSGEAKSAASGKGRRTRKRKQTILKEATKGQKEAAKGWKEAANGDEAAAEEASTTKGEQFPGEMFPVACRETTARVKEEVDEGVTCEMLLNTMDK

[3] = target: T1, BORIS (Brother Of the Regulator of Imprinting Sites; CTCFL) (human (endogenous in K562, OVCAR8 and human testis)); assay: co-IP; K562 lysates (1.5 mg total protein; RIPA buffer with 500 mM NaCl) immunoprecipitated with anti-BORIS or anti-CTCF monoclonal antibodies or mouse IgG overnight at 4 °C, with and without ethidium bromide; precipitates probed with CTCF antibodies

Measured: binding

B1: CTCF (CCCTC-binding factor) (protein, UniProt P49711 1-727)
chain: MEGDAVEAIVEESETFIKGKERKTYQRRREGGQEEDACHLPQNQTDGGEVVQDVNSSVQMVMMEQLDPTLLQMKTEVMEGTVAPEAEAAVDDTQIITLQVVNMEEQPINIGELQLVQVPVPVTVPVATTSVEELQGAYENEVSKEGLAESEPMICHTLPLPEGFQVVKVGANGEVETLEQGELPPQEDPSWQKDPDYQPPAKKTKKTKKSKLRYTEEGKDVDVSVYDFEEEQQEGLLSEVNAEKVVGNMKPPKPTKIKKKGVKKTFQCELCSYTCPRRSNLDRHMKSHTDERPHKCHLCGRAFRTVTLLRNHLNTHTGTRPHKCPDCDMAFVTSGELVRHRRYKHTHEKPFKCSMCDYASVEVSKLKRHIRSHTGERPFQCSLCSYASRDTYKLKRHMRTHSGEKPYECYICHARFTQSGTMKMHILQKHTENVAKFHCPHCDTVIARKSDLGVHLRKQHSYIEQGKKCRYCDAVFHERYALIQHQKSHKNEKRFKCDQCDYACRQERHMIMHKRTHTGEKPYACSHCDKTFRQKQLLDMHFKRYHDPNFVPAAFVCSKCGKTFTRRNTMARHADNCAGPDGVEGENGGETKKSKRGRKRKMRSKKEDSSDSENAEPDLDDNEDEEEPAVEIEPEPEPQPVTPAPPPAKKRRGRPPGRTNQPKQNQPTAIIQVEDQNTGAIENIIVEVKKEPDAEPAEGEEEEAQPAATDAPNGDLTPEMILSMMDR
binds: [1] | [2] | [3]
